Source: patent US20230277125A1, “BREATH-BASED THERAPEUTIC DRUG MONITORING METHOD” (UNIVERSITÄTS-KINDERSPITAL BEIDER BASEL, priority 2020, published 2023)

Assay: SESI-HRMS exhaled breath metabolite levels, side effects vs no side effects in patients on antiepileptic drugs
Type: in vivo, human
Conditions: side effect dataset (yes vs no), training-set, average over listed m/z adducts

Compound | Average log2 FC
6-Amino-2-oxohexanoate | 0.662
O=C(O)C1=NCCC1 [1-Pyrroline-2-carboxylate] | 0.708
O=C(O)C1CCC=N1 (centres unmarked) [1-Pyrroline-5-carboxylate] | 0.708
CC(=O)NC(CCC=O)C(=O)O (centres unmarked) [2-Acetamido-5-oxopentanoate] | 0.788
N[C@@H](CCCC=O)C(=O)O [2-Aminoadipate 6-semialdehyde] | 0.662
C[N+](C)(C)CCCC(=O)[O-] [3-Dehydroxycarnitine] | 0.674
CC(=O)NCCCC(=O)O [4-Acetamidobutanoate] | 0.662
N=C(N)NCCCC(=O)O [4-Guanidinobutanoate] | 0.984
O=C(O)CCCO [4-Hydroxybutanoate] | 1.113
CC[C@H](N)C(=O)O [(S)-2-Aminobutanoate] | 0.955
CC(=O)O [Acetate] | −1.130
NC(=O)NCCC[C@H](N)C(=O)O [Citrulline] | 0.909
CN(CC(=O)O)C(=N)N [Creatine] | 0.438
N[C@H](CC(=O)O)C(=O)O [D-Aspartate] | 0.849
O=C(O)[C@H]1CCCN1 [D-Proline] | 0.915
NCC(=O)O [Glycine] | −0.061
O=CC(=O)O [Glyoxylate] | 0.236
N[C@@H](CCCC(=O)O)C(=O)O [L-2-Aminoadipate] | 0.562
N[C@@H](CC(O)C=O)C(=O)O (stereo partly drawn) [L-4-Hydroxyglutamate semialdehyde] | 0.503
NC(=O)C[C@H](N)C(=O)O [L-Asparagine] | 0.803
N[C@@H](CC(=O)O)C(=O)O [L-Aspartic acid] | 0.849
C[N+](C)(C)C[C@H](O)CC(=O)[O-] [L-Carnitine] | 0.574
N[C@@H](CCC(=O)O)C(=O)O [L-Glutamic acid] | 0.503
NC(=O)CC[C@H](N)C(=O)O [L-Glutamine] | 0.935

Compound | Average log2 FC
NCCCC[C@H](N)C(=O)O [L-Lysine] | 0.845
O=C(O)[C@@H]1CCCCN1 [L-Pipecolate] | 0.708
O=C(O)[C@@H]1CCCN1 [L-Proline] | 0.915
N[C@@H](C[C@@H](O)C(=O)O)C(=O)O [L-erythro-4-Hydroxyglutamate] | 1.004
CC(=O)NCCCNCCCCN [N1-Acetylspermidine] | 0.528
NCCC[C@H](NC(=O)CCC(=O)O)C(=O)O [N2-Succinyl-L-ornithine] | 0.532
CC(=O)NCCCC=O [N4-Acetylaminobutanal] | 0.708
C[N+](C)(C)CCCC[C@H](N)C(=O)O [N6,N6,N6-Trimethyl-L-lysine] | 0.722
CC(=O)NCCCCNCCCN [N8-Acetylspermidine] | 0.528
CC(=O)N[C@@H](CCC(=O)O)C(=O)O [N-Acetyl-L-glutamate] | 0.716
CC(=O)N[C@@H]1O[C@H](CO)[C@@H](O)[C@H](O)[C@H]1N [N-Acetyl-beta-D-glucosaminylamine] | 1.155
CC(=O)N[C@@H](CCCN)C(=O)O [N-Acetylornithine] | 1.348
CC(=O)NCCCCN [N-Acetylputrescine] | 0.704
CNCC(O)c1ccccc1 (centres unmarked) [N-Methylphenylethanolamine] | 0.572
CNCC(=O)O [Sarcosine] | 0.472
CC(=O)NCCC=O [acetamidopropanal] | 0.915
O=C(O)C1=NCCCC1 [delta1-Piperideine-2-carboxylate] | 0.579
O=C(O)[C@@H]1CCCC=N1 [delta1-Piperideine-6-L-carboxylate] | 0.579
O=CCCNCCCCNCCC=O [spermine dialdehyde] | 1.321
Procollagen 5-hydroxy-L-lysine | 1.133
Protein N6,N6-dimethyl-L-lysine | 0.948
spermidine monoaldehyde 1 | 0.953
spermidine monoaldehyde 2 | 0.953
